Drawing on article PMC7819943, “Rice protein-binding microarrays: a tool to detect cis-acting elements near promoter regions in rice”, this text covers binding signal for 54 sequences.

Amino acid sequences for entries named in this document (tags omitted).
UniProt Q0JBA9, entry or part of it: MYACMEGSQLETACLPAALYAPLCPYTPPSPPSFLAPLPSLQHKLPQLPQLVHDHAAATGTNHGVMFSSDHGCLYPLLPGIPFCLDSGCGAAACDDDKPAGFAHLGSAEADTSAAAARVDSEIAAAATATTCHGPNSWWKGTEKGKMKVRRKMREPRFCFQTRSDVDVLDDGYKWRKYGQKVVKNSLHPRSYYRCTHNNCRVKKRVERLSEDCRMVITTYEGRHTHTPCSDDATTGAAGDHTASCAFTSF

This is one part of the list.

This test addresses OsWRKY34 (Oryza sativa, UniProt Q0JBA9 1-250). The experiment in a line: protein-binding microarray (RPBM); PBS, 2% BSA, 51.3 ng/ul salmon testes DNA, 50 uM zinc acetate, 200 nM TF, 25 C, 1 h; high values mean tight binding. As to conditions: protein: recombinant; tags: N-terminal polyhistidine and DsRed monomer fusion (pET32a); label: CyDye5-dUTP incorporated in the synthesized complementary strand; 3' TTTTT single-stranded linker to array surface; dsDNA, one strand shown. A digest of the protocol:
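Using Ni–NTA, transcription factors fused N-terminally to polyhistidine and DsRed were purified after expression in E. coli BL21-CodonPlus. These were incubated at 200 nM with a blocked, double-stranded custom Agilent array for 1 h at 25 °C in a buffer containing 50 µM zinc acetate, and the array was washed. The binding signal is per-feature fluorescence intensity (arbitrary units) on an Axon 4000B scanner.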
Turning to “ACGGGCAAGCGGGCTTGTTTATCCCGCTTATCCCACTTCTCGGAGTCACCTAGTGCAG”, the binding signal was 8140 fluorescence intensity (a.u.).

For the sequence “TAAATAAGCAGTGCAATGGCTCTTGTATTTTTGACTTTTTCGGAGTCACCTAGTGCAG”, the binding signal is 8230 fluorescence intensity (a.u.).

“GCTACAAATCTGTAGCCCGCTGCTCTTCTCTCTCCTGATTCGGAGTCACCTAGTGCAG”: the binding signal was 9190 fluorescence intensity (a.u.).

In the case of “CTAGCTACCATCTATACTAGTATCAAGTTTTTTTGTTCAGCGGAGTCACCTAGTGCAG”, the binding signal was 9290 fluorescence intensity (a.u.).

For “CGTAATATCACATCTCCTGATGGCCTGCAATTTTTTTTACCGGAGTCACCTAGTGCAG”, the binding signal is 8210 fluorescence intensity (a.u.).

With “GTTTTGATTGGCATATGGTCCCTCCAATCCGTGTAATTGTCGGAGTCACCTAGTGCAG”, the binding signal was 8320 fluorescence intensity (a.u.).

With “AAGCATACCCTTTGTATTTGTTTTTTCTTCCCTCAAATCTCGGAGTCACCTAGTGCAG”, the binding signal is 8530 fluorescence intensity (a.u.).

In the case of “TGCACCGCGCGCAGGGTAGGGTGGGCGTCCTTGCCATTGTCGGAGTCACCTAGTGCAG”, the binding signal is 8740 fluorescence intensity (a.u.).

On to “ATGTCAGCTACCCACGTTTTTTCACAAGAGCATTTTTCCACGGAGTCACCTAGTGCAG”, for which the binding signal was 8340 fluorescence intensity (a.u.).

Turning to “TACCTTTTGTACGGTTAACATCTCTAGATACGTCTACTAACGGAGTCACCTAGTGCAG”, the binding signal is 8790 fluorescence intensity (a.u.).

As for “GGTGGTTTGAATTTGGTGTGGCGTTTTTCTTGGGCAGGGGCGGAGTCACCTAGTGCAG”, the binding signal was 21500 fluorescence intensity (a.u.).

On to “AGCCACAAGATCCCATGAATATCTCTGACCGTCGCAAGATCGGAGTCACCTAGTGCAG”, for which the binding signal is 8130 fluorescence intensity (a.u.).

Take “CGAACCCAAACCCGCGAGCCGTTACCCTTCCCGCCATTTCCGGAGTCACCTAGTGCAG”: the binding signal was 13100 fluorescence intensity (a.u.).

Consider “AGTGCATTCTCTCTCCTTATCTTCTCTCTCTTCCACATCACGGAGTCACCTAGTGCAG”, for which the binding signal is 12100 fluorescence intensity (a.u.).

As for “GTAAGCACATATCCTCCTCGATAACCCCACCGGAAAATATCGGAGTCACCTAGTGCAG”, the binding signal was 8160 fluorescence intensity (a.u.).

Regarding “GGTTATATCGCGTGGTTCAATTCCGGGGCCTTATCTCTCTCGGAGTCACCTAGTGCAG”, the binding signal was 13200 fluorescence intensity (a.u.).

On to “TCTCTGCTGCCACCGTCGTCTCGTGCCTTGCATGTTTCCGCGGAGTCACCTAGTGCAG”, for which the binding signal was 11700 fluorescence intensity (a.u.).

As for “ATCACCGCCTTTTACGTACCGGCTCTTTCACCTAGCTAGCCGGAGTCACCTAGTGCAG”, the binding signal was 10200 fluorescence intensity (a.u.).

As to “AAGAGTTTATTTTTATTTTTTGTGCACATTGAATTCAATTCGGAGTCACCTAGTGCAG”, the binding signal was 9080 fluorescence intensity (a.u.).

Consider “CCCATCGTCCCATTCATTCGCTCACTCATCGACCCGCCCTCGGAGTCACCTAGTGCAG”, for which the binding signal was 8870 fluorescence intensity (a.u.).

With “GCCATGGTAACCGTCTTGCTATGTATGTGTACACCAATTTCGGAGTCACCTAGTGCAG”, the binding signal was 10100 fluorescence intensity (a.u.).

For the sequence “CTTGCTTTGTTTTTTCCTTGAGCGAGACACTTTGAGATTTCGGAGTCACCTAGTGCAG”, the binding signal is 8480 fluorescence intensity (a.u.).

Regarding “CCGTTCGCCATTCGTTTCCACGCATCCCTTCCACTGACTCCGGAGTCACCTAGTGCAG”, the binding signal was 11300 fluorescence intensity (a.u.).

For the sequence “ACTCAGCGTTTACATTACCATCGGTAACCGCGCGGTTACCCGGAGTCACCTAGTGCAG”, the binding signal is 8420 fluorescence intensity (a.u.).

Regarding “AACTATTCTATTATGGTTCCAGCTACAGTTTGCAGTTGTTCGGAGTCACCTAGTGCAG”, the binding signal was 8920 fluorescence intensity (a.u.).

As for “TACTAATTCAAAATATAATATTTTTTATTACTCTTTTCTTCGGAGTCACCTAGTGCAG”, the binding signal was 8400 fluorescence intensity (a.u.).

Regarding “CATCCCTGATCTCTCTATCTCTGTCGCTCGCGCAGCCATGCGGAGTCACCTAGTGCAG”, the binding signal is 9500 fluorescence intensity (a.u.).

Consider “GTGTTCAGGGGTCGGGGATCGAGATCAGCGGCGTGTCGTACGGAGTCACCTAGTGCAG”, for which the binding signal was 8110 fluorescence intensity (a.u.).

As for “GATGGTCTCACGTAACTTCTTTGTTCCCTTTCTCTTCAATCGGAGTCACCTAGTGCAG”, the binding signal was 10500 fluorescence intensity (a.u.).

Turning to “TCCGTGTCTAACTTTAATGGTCCGTCTTATTTTTTTTATACGGAGTCACCTAGTGCAG”, the binding signal was 13000 fluorescence intensity (a.u.).

Consider “ATATCAGTCCTGAATTCGTTCATCTCCTCCATATCAACCACGGAGTCACCTAGTGCAG”, for which the binding signal was 8440 fluorescence intensity (a.u.).

As for “CCATCCAACCTTTAGCCTGTGCCTGTATAATATATTTATACGGAGTCACCTAGTGCAG”, the binding signal is 8360 fluorescence intensity (a.u.).

Turning to “CTCAACTACGTATTAGTTAGCCGCCTACTACTACTTGCTACGGAGTCACCTAGTGCAG”, the binding signal was 8390 fluorescence intensity (a.u.).

Take “GGTGGTGGCGGTGCTCCTTGGTGTGGGGATAAACAGAGGTCGGAGTCACCTAGTGCAG”: the binding signal is 10700 fluorescence intensity (a.u.).

On to “GCTGGAGGGGCTGGGGTATGTTCTTTTTGTATATGACGTTCGGAGTCACCTAGTGCAG”, for which the binding signal was 20300 fluorescence intensity (a.u.).

For the sequence “GTTTTTCCTTTTTGAGCTCAAATGCGAGCTGCCAGCCCCACGGAGTCACCTAGTGCAG”, the binding signal was 8520 fluorescence intensity (a.u.).

As to “CAGGTTTTAATTTTTTTTCTCGAGTTTGTCTTTTGTTGCACGGAGTCACCTAGTGCAG”, the binding signal is 8060 fluorescence intensity (a.u.).

In the case of “GATTGTAATTTCTGTATTTGTGCAGGGACCTATTAGTATTCGGAGTCACCTAGTGCAG”, the binding signal was 8050 fluorescence intensity (a.u.).

On to “ATCTGCTACCTCTTTGCAGTACAGTACTGTTGGCTGTTTCCGGAGTCACCTAGTGCAG”, for which the binding signal is 9990 fluorescence intensity (a.u.).

Consider “GCTCCACCTTCCACCGCTTGCTGCTCATAAACGAGTTCACCGGAGTCACCTAGTGCAG”, for which the binding signal is 9170 fluorescence intensity (a.u.).

As for “AAAAACTGGTCAACCTCCGCCATCTCAATTTGGATCTTTGCGGAGTCACCTAGTGCAG”, the binding signal is 10100 fluorescence intensity (a.u.).

Take “AAAACCCTAGCGCCTTCGTCTACCTCCAGCTCGTCGCGCGCGGAGTCACCTAGTGCAG”: the binding signal was 8870 fluorescence intensity (a.u.).

With “AGTTCTCTTCATATCAATGGGACATTTCCCTGTCAGTGTGCGGAGTCACCTAGTGCAG”, the binding signal was 9340 fluorescence intensity (a.u.).

With “GTCACATTTAACACTAATGAATTTTACTTCCTATTATTTGCGGAGTCACCTAGTGCAG”, the binding signal was 9160 fluorescence intensity (a.u.).

Regarding “GAACGCATTACCCATTCCCCGTTTGACTTCCAATTCAAACCGGAGTCACCTAGTGCAG”, the binding signal was 9500 fluorescence intensity (a.u.).

In the case of “AGTTGACTTCCAGTTGGGCATCTGCGCTGCTAACCATCTCCGGAGTCACCTAGTGCAG”, the binding signal is 9650 fluorescence intensity (a.u.).

In the case of “CATGCATGTTGCAACCACTACGCTGCGTATCCTAGTTTTACGGAGTCACCTAGTGCAG”, the binding signal is 8510 fluorescence intensity (a.u.).

As for “TTCCGCCACAAGTTCCCGGCCGCCGCCGCCGCCGCCGCCACGGAGTCACCTAGTGCAG”, the binding signal was 8160 fluorescence intensity (a.u.).

Consider “TTCTGAACCGTGTTAAAATGCTACAAAATTTTCCCTTTTTCGGAGTCACCTAGTGCAG”, for which the binding signal was 8570 fluorescence intensity (a.u.).

As for “CAAGAGCCCCAAATCCGCTATTGCATTTGTTTCATTTCATCGGAGTCACCTAGTGCAG”, the binding signal was 10600 fluorescence intensity (a.u.).

As to “CTAAACAGGCCCTTAGACGCACCCCTTGGGTTCAACCGACCGGAGTCACCTAGTGCAG”, the binding signal is 8640 fluorescence intensity (a.u.).

On to “GGGGCGTCCCGGGAGGGGAGGGAGATGGGGAGGGAGCGGACGGAGTCACCTAGTGCAG”, for which the binding signal is 16800 fluorescence intensity (a.u.).

In the case of “CTTTTTCACGATGATAGATAGTAGCCACTTTTTTCTGTCGCGGAGTCACCTAGTGCAG”, the binding signal was 8310 fluorescence intensity (a.u.).

Turning to “ATATACATGTGATAGCTTCGTCTCAAGATACATTGTCCTACGGAGTCACCTAGTGCAG”, the binding signal is 9500 fluorescence intensity (a.u.).
